Data source: PubChem BioAssay AID504744 (Drosophila RNAi Screening Center, 2011)
Test: 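Identify dsRNAs that increase or decrease phospho-dAkt after insulin treatment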 (primary screen). System: Drosophila Kc167 cells. Knock-down reagent: long dsRNA against Drosophila genes, 250 ng dsRNA per well of a 384-well plate. Timing: 3 days of knock-down, then overnight serum-free starvation before stimulation. Challenge: bovine insulin at 387 nM for 10 minutes after 12 h without serum. Measured: 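In-cell antibody fluorescence for phospho-dAkt in each well over DNA-dye signal, with log2 residuals expressed as z-scores adjusted for cell count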. Hit rule: 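Under insulin, a gene counts as a hit if the average z-score of two replicates lies above 2.5 or below -2.5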.
The screen tested about 23,000 reagents; this is a random part of those with a known target gene and a result. Of all reagents, 98 (0.43%) are marked active. 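Only hit calls are given; the phospho-dAkt signals, z-scores and hit direction were not deposited.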

gene | amplicon | activity call
CG31710 | DRSC01089 | inactive
CG31710 | DRSC22863 | inactive
Flad2 | DRSC02531 | inactive
CG30472 | DRSC22245 | inactive
hbs | DRSC07627 | inactive
CG5002 | DRSC06911 | inactive
Acer | DRSC01852 | inactive
mei-P26 | DRSC17735 | inactive
CG42258 | DRSC19741 | inactive
CG42258 | DRSC19783 | inactive
CG14234 | DRSC19317 | inactive
CG14234 | DRSC19589 | inactive
Shark | DRSC07680 | inactive
RpL17 | DRSC18293 | inactive
snk | DRSC17060 | inactive
PlexB | DRSC17177 | inactive
Rab18 | DRSC18702 | inactive
CG10514 | DRSC14249 | inactive
Osi4 | DRSC12134 | inactive
CG32202 | DRSC09989 | inactive
dpr19 | DRSC02237 | inactive
CG5402 | DRSC15792 | inactive
Scr | DRSC12604 | inactive
fid | DRSC14885 | inactive
fid | DRSC16464 | inactive
Ccp84Ae | DRSC12590 | inactive
CG16852 | DRSC01876 | inactive
mod | DRSC16999 | inactive
CG16782 | DRSC18118 | inactive
endos | DRSC10658 | inactive
Pebp1 | DRSC15354 | inactive
CG17272 | DRSC15211 | inactive
GstE1 | DRSC07437 | inactive
alpha-Est7 | DRSC12619 | inactive
CG8818 | DRSC07275 | inactive
fz2 | DRSC09595 | inactive
fz2 | DRSC10087 | inactive
fz2 | DRSC11349 | inactive
CG9815 | DRSC04567 | inactive
Pif1 | DRSC00582 | inactive
C1GalTA | DRSC03246 | inactive
Fancd2 | DRSC15208 | inactive
Fancd2 | DRSC22763 | inactive
CG5386 | DRSC15788 | inactive
PpN58A | DRSC04642 | inactive
CG10481 | DRSC02063 | inactive
teq | DRSC10298 | inactive
teq | DRSC11301 | inactive
teq | DRSC11302 | inactive
CG16800 | DRSC02518 | inactive
CG13791 (retired record) | DRSC02295 | inactive
Spn42Da | DRSC05025 | inactive
Oseg1 | DRSC10776 | inactive
Tm1 | DRSC13082 | inactive
Tm1 | DRSC13083 | inactive
Tm1 | DRSC16886 | inactive
corolla | DRSC20102 | inactive
CG11327 | DRSC02146 | inactive
Cyp4ac2 | DRSC03303 | inactive
Lcp65Ag3 | DRSC10345 | inactive
CG8314 | DRSC07144 | inactive
kek2 | DRSC03552 | inactive
CG42329 | DRSC00373 | inactive
CG42329 | DRSC00682 | inactive

Copied from above for reference:
gene | amplicon | activity call
CG14234 | DRSC19589 | inactive
Shark | DRSC07680 | inactive
RpL17 | DRSC18293 | inactive
snk | DRSC17060 | inactive
PlexB | DRSC17177 | inactive
